Test results from US20210214460A1 (AstraZeneca / MedImmune, published 2021).
Results are given in words; binding and its absence hold for the method and conditions named. Some results given as binding are weak or reduced against the parent protein; the word gives no strength.

Key:
[1] = molecular target: cynomolgus monkey BCMA stably expressed on Ad293 cells (cynomolgus monkey); experiment: FACS on Ad293 cells expressing cynoBCMA
[2] = molecular target: cynomolgus monkey BCMA stably expressed on Ad293 cells (cynomolgus monkey); experiment: FACS on Ad293 cells stably expressing cynomolgus BCMA, Alexa Fluor 647 secondary antibody, raw MFI (geo mean)
[3] = molecular target: cynomolgus monkey BCMA stably expressed on Ad293 cells (cynomolgus monkey); experiment: FACS on Ad293 cells stably expressing cynomolgus BCMA

Measured: binding

B1: 15B2GL monoclonal antibody (antibody, V domains shown)
VH: EVQLVESGGGLVKPGGSLRLSCAASGFTFRSYSMNWVRQAPGKGLEWVSSISGSSNYIYYADSVKGRFTISRDNAKNSLYLQMNSLRAEDTAVYYCARGGNYYVEYFQYWGQGTLVTVSS
VL: EIVLTQSPGTLSLSPGERATLSCRASQYISSNYLAWYQQKPGQAPRLLIYGASNRATGIPDRFSGSGSGTDFTLTISRLEPEDFAVYYCQQYGSSPITFGQGTKLEIK
notes: Clone 15B2 was converted into human IgG1 and germlined at four residues (15B2GL); also called germlined 15B2
binds: [1] | [2] | [3]
